Data taken from article PMC5670241.
Results are given in words; binding and its absence hold for the method and conditions named. Binding seen in cells or lysates may run through a third protein. Some results given as binding are weak or reduced against the parent protein; the word gives no strength.

Chains of the proteins cited; added tags and fusions are not shown. Lines headed by an entry give the natural chain unless they say otherwise; changes in a name come on top.
UniProt Q16659: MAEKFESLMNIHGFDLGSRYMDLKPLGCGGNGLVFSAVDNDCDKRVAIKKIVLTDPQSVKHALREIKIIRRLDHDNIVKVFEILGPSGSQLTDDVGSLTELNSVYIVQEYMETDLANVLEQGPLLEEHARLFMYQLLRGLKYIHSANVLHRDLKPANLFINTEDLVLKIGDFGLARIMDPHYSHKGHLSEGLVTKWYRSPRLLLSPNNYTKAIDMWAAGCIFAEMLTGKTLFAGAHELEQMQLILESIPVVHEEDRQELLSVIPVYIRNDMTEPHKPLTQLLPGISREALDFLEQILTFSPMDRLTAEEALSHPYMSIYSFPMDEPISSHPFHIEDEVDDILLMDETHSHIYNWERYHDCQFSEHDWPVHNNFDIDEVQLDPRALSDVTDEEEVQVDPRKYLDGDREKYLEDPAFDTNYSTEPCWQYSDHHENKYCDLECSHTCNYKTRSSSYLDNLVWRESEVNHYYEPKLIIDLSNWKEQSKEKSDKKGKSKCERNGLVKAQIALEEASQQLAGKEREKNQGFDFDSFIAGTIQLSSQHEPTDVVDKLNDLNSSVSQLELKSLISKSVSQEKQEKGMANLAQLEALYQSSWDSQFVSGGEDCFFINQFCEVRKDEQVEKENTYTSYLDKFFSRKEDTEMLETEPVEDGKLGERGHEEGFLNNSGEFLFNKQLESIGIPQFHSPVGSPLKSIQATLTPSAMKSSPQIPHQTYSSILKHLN
UniProt Q8IW41: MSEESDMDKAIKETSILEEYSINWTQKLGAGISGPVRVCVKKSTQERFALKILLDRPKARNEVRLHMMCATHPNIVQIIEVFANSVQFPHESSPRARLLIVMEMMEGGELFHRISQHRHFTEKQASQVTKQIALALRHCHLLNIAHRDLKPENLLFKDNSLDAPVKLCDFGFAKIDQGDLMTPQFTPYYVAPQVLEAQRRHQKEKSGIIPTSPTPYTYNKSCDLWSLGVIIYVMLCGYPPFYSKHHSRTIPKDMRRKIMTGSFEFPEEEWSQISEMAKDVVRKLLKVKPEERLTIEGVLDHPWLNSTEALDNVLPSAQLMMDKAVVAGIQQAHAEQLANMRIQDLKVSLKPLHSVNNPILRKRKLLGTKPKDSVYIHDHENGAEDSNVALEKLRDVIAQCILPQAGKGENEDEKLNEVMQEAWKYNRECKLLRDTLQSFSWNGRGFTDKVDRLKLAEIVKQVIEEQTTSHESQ
UniProt O14980: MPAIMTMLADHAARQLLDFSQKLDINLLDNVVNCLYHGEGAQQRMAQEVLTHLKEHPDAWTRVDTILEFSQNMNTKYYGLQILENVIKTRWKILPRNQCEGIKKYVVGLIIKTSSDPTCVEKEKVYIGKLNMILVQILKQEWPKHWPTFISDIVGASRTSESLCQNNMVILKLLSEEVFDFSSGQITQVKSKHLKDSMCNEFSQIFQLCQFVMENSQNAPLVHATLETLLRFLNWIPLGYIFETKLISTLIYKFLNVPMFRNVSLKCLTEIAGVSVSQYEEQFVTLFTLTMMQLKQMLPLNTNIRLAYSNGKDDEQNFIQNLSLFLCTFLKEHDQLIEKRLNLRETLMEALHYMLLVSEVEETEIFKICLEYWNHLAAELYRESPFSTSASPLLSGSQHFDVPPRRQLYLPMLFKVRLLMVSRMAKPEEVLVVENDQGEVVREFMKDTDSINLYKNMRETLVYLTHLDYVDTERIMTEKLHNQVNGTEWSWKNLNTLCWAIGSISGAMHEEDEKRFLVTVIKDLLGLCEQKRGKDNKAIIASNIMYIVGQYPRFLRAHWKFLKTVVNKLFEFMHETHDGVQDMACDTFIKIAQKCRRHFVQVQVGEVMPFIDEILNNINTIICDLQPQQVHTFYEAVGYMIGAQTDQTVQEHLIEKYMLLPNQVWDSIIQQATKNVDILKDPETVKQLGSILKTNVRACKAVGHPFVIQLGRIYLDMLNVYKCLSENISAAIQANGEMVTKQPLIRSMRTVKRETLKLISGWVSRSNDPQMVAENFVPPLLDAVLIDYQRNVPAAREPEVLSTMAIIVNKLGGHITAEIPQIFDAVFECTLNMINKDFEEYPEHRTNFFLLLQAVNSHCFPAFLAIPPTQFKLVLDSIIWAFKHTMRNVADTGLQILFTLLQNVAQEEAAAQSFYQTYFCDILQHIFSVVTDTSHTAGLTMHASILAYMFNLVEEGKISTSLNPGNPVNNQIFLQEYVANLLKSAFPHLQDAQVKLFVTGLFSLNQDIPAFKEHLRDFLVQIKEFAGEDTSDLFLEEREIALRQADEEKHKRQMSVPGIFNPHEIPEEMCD

Key:
Test in all cases: co-IP; HA-tagged ERK3 proteins immunoprecipitated from lysates of transfected HeLa cells with anti-HA agarose beads; Western blotting for CRM1 and MK5; input 2%
[1] = biological target: HA-tagged wild type ERK3 (UniProt Q16659)
[2] = biological target: HA-tagged ERK3 L290V (UniProt Q16659)
[3] = biological target: HA-tagged ERK3 L290P (UniProt Q16659)

Measured: binding

MAPK-activated protein kinase-5 (MK5) (from UniProt Q8IW41 1-473)
binds: all assays above

chromosomal maintenance 1 (CRM1) (from UniProt O14980 1-1071)
binds: all assays above
